# Measured values: publication PMC4410673
# Results are given in words; binding and its absence hold for the method and conditions named. Binding seen in cells or lysates may run through a third protein. Some binding calls cover weakened binding; strength is not graded here. Where a sequence is shown, tags or fusion partners need not be part of it.
# B1: full-length human ABCB6 (ABCB6–HA and ABCB6–FLAG, co-expressed) (protein, UniProt Q9NP58-1 1-842)
# chain: MVTVGNYCEAEGPVGPAWMQDGLSPCFFFTLVPSTRMALGTLALVLALPCRRRERPAGADSLSWGAGPRISPYVLQLLLATLQAALPLAGLAGRVGTARGAPLPSYLLLASVLESLAGACGLWLLVVERSQARQRLAMGIWIKFRHSPGLLLLWTVAFAAENLALVSWNSPQWWWARADLGQQVQFSLWVLRYVVSGGLFVLGLWAPGLRPQSYTLQVHEEDQDVERSQVRSAAQQSTWRDFGRKLRLLSGYLWPRGSPALQLVVLICLGLMGLERALNVLVPIFYRNIVNLLTEKAPWNSLAWTVTSYVFLKFLQGGGTGSTGFVSNLRTFLWIRVQQFTSRRVELLIFSHLHELSLRWHLGRRTGEVLRIADRGTSSVTGLLSYLVFNVIPTLADIIIGIIYFSMFFNAWFGLIVFLCMSLYLTLTIVVTEWRTKFRRAMNTQENATRARAVDSLLNFETVKYYNAESYEVERYREAIIKYQGLEWKSSASLVLLNQTQNLVIGLGLLAGSLLCAYFVTEQKLQVGDYVLFGTYIIQLYMPLNWFGTYYRMIQTNFIDMENMFDLLKEETEVKDLPGAGPLRFQKGRIEFENVHFSYADGRETLQDVSFTVMPGQTLALVGPSGAGKSTILRLLFRFYDISSGCIRIDGQDISQVTQASLRSHIGVVPQDTVLFNDTIADNIRYGRVTAGNDEVEAAAQAAGIHDAIMAFPEGYRTQVGERGLKLSGGEKQRVAIARTILKAPGIILLDEATSALDTSNERAIQASLAKVCANRTTIVVAHRLSTVVNADQILVIKDGCIVERGRHEALLSRGGVYADMWQLQQGQEETSEDTKPQTMER
# B2: N-terminally truncated ABCB6–core (206–ABCB6–core), HA- and FLAG-tagged copies (domain or fragment, UniProt Q9NP58-1 206-842)
# chain: APGLRPQSYTLQVHEEDQDVERSQVRSAAQQSTWRDFGRKLRLLSGYLWPRGSPALQLVVLICLGLMGLERALNVLVPIFYRNIVNLLTEKAPWNSLAWTVTSYVFLKFLQGGGTGSTGFVSNLRTFLWIRVQQFTSRRVELLIFSHLHELSLRWHLGRRTGEVLRIADRGTSSVTGLLSYLVFNVIPTLADIIIGIIYFSMFFNAWFGLIVFLCMSLYLTLTIVVTEWRTKFRRAMNTQENATRARAVDSLLNFETVKYYNAESYEVERYREAIIKYQGLEWKSSASLVLLNQTQNLVIGLGLLAGSLLCAYFVTEQKLQVGDYVLFGTYIIQLYMPLNWFGTYYRMIQTNFIDMENMFDLLKEETEVKDLPGAGPLRFQKGRIEFENVHFSYADGRETLQDVSFTVMPGQTLALVGPSGAGKSTILRLLFRFYDISSGCIRIDGQDISQVTQASLRSHIGVVPQDTVLFNDTIADNIRYGRVTAGNDEVEAAAQAAGIHDAIMAFPEGYRTQVGERGLKLSGGEKQRVAIARTILKAPGIILLDEATSALDTSNERAIQASLAKVCANRTTIVVAHRLSTVVNADQILVIKDGCIVERGRHEALLSRGGVYADMWQLQQGQEETSEDTKPQTMER
# Tests used:
# [1] = biological target: full-length human ABCB6 (ABCB6–HA and ABCB6–FLAG, co-expressed) (human) (UniProt Q9NP58); assay: co-IP; HA- and FLAG-tagged ABCB6 variants transiently co-expressed in HeLa cells; lysis in 45 mM Tris, 135 mM NaCl, 0.5% NP-40, 10 mM NEM; anti-FLAG antibody on Protein A/G agarose beads; eluate blotted with anti-HA
# [2] = biological target: N-terminally truncated ABCB6–core (206–ABCB6–core), HA- and FLAG-tagged copies (human) (UniProt Q9NP58); assay: as above
Binder,binding [1],binding [2]
B1,binds,–
B2,–,binds
